Laboratory results reported in publication PMC9849337.
No constants are given. Whether binding was seen depends on the method and setting. Binding seen in cells or lysates may run through a third protein. Some binding calls cover weakened binding; strength is not graded here.

Target: Epidermal growth factor receptor (EGFR) (human (endogenous in SKOV3 and A2780)) (UniProt P00533)
Test: co-IP; reciprocal co-IP of endogenous PKG I and EGFR from SKOV3 and A2780 lysates; primary antibody overnight at 4 °C, magnetic beads 2 h, washed four times with PBS, Western blot

binding: binds
B1: type I cGMP-dependent protein kinase (PKG I) (enzyme, UniProt Q13976 1-671)
chain: MSELEEDFAKILMLKEERIKELEKRLSEKEEEIQELKRKLHKCQSVLPVPSTHIGPRTTRAQGISAEPQTYRSFHDLRQAFRKFTKSERSKDLIKEAILDNDFMKNLELSQIQEIVDCMYPVEYGKDSCIIKEGDVGSLVYVMEDGKVEVTKEGVKLCTMGPGKVFGELAILYNCTRTATVKTLVNVKLWAIDRQCFQTIMMRTGLIKHTEYMEFLKSVPTFQSLPEEILSKLADVLEETHYENGEYIIRQGARGDTFFIISKGTVNVTREDSPSEDPVFLRTLGKGDWFGEKALQGEDVRTANVIAAEAVTCLVIDRDSFKHLIGGLDDVSNKAYEDAEAKAKYEAEAAFFANLKLSDFNIIDTLGVGGFGRVELVQLKSEESKTFAMKILKKRHIVDTRQQEHIRSEKQIMQGAHSDFIVRLYRTFKDSKYLYMLMEACLGGELWTILRDRGSFEDSTTRFYTACVVEAFAYLHSKGIIYRDLKPENLILDHRGYAKLVDFGFAKKIGFGKKTWTFCGTPEYVAPEIILNKGHDISADYWSLGILMYELLTGSPPFSGPDPMKTYNIILRGIDMIEFPKKIAKNAANLIKKLCRDNPSERLGNLKNGVKDIQKHKWFEGFNWEGLRKGTLTPPIIPSVASPTDTSNFDSFPEDNDEPPPDDNSGWDIDF
